Experimental data published in the supplement of paper PMC9135407.
Several values for one entry are separate records, joined by “and”; a condition that tells them apart may be missing. Equal values may be shown once. Where a name gives a salt, the structure may show the parent alone. ± gives the standard deviation of the averaged measurements. The list shows a part of the results. Baselines shift from plate to plate; read single values as rough.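 Assay uses culture-activated primary human stellate myofibroblasts; lipid droplet recovery indicates inactivation. Measured: proportion of Hoechst-counted cells over a plate-specific Bodipy cutoff, duplicate wells, DMSO and nortriptyline as per-plate negative and positive controls. A hit scores, control-normalized, above the plate's top-tenth-percentile nortriptyline wells or ranks among its three best wells. Final well concentrations not reported.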

Test system: primary human hepatic stellate cells (donor 1)
Experiment: percent Bodipy-positive cells; higher = more lipid droplet accumulation
Settings: 48 h
Protocol: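 Primary lipid accumulation screen in primary human hepatic stellate cell myofibroblasts (donor 1, passage 8) in 384-well plates. 100 nL of library compound was pin-transferred into 30 µL medium in duplicate, and cells were treated for 48 h. The 'Scaled' score combines distance from plate baseline, toxicity and reproducibility penalties, and is normalised to nortriptyline (positive) and DMSO (negative) controls on each plate. A hit is defined as scaled >0.85 or among the top 3 wells per plate.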

[1] = library stock concentration: 10 mM
[2] = library stock concentration: 3.33 mM
[3] = library stock concentration: 2 mM
[4] = library stock concentration: 1 mM
[5] = library stock concentration: 2.3 mM

SMILES: Cc1nc2ccccn2c(=O)c1CCN1CCC(C(=O)c2ccc(F)cc2)CC1 [Pirenperone]
- percent Bodipy-positive cells: 40.1 ± 3.5%
- percent Bodipy-positive cells (library stock concentration: 5.1 mM): 20.2 ± 7%
- percent Bodipy-positive cells [1]: 34.6% and 58.2%

SMILES: Cc1nc2ccccn2c(=O)c1CCN1CCC(C(=O)c2ccc(F)cc2)CC1
- percent Bodipy-positive cells [1]: 25.7 ± 3.4%

SMILES: Nc1ccc(-c2ccc3ncc4ccc(=O)n(-c5cccc(C(F)(F)F)c5)c4c3c2)cn1 [Torin 2]
- percent Bodipy-positive cells [2]: 15.9 ± 1.2%
- percent Bodipy-positive cells [1]: 37.3 ± 5.3%

SMILES: Nc1ccc(-c2ccc3ncc4ccc(=O)n(-c5cccc(C(F)(F)F)c5)c4c3c2)cn1 [Torin2]
- percent Bodipy-positive cells (library stock concentration: 80 uM): 4.95 ± 1.7%
- percent Bodipy-positive cells (library stock concentration: 400 uM): 9.5 ± 6.4%
- percent Bodipy-positive cells [3]: 19.6 ± 12%
- percent Bodipy-positive cells [1]: 31.2 ± 9.6%

SMILES: C(=C/CCN(C)C)(/c1c2cccc1)\c3c(cccc3)C=C2.Cl [Cyclobenzaprine hydrochloride]
- percent Bodipy-positive cells [1]: 96.93 ± 0.23%

SMILES: Nc1nc(N)c(N=O)c(OCC2CCCCC2)n1
- percent Bodipy-positive cells [2]: 27.6 ± 7.2%
- percent Bodipy-positive cells [1]: 16.6% and 13.6%

SMILES: NC(=O)c1cnccn1 [Pyrazinecarboxamide]
- percent Bodipy-positive cells [1]: 16.8 ± 4.6%

SMILES: NC(=O)c1cnccn1
- percent Bodipy-positive cells [1]: 31.3 ± 4.7%

SMILES: NC(=O)c1cnccn1 [Pyrazinamide]
- percent Bodipy-positive cells: 35.1 ± 3.7%
- percent Bodipy-positive cells [2]: 9.06 ± 1.3%
- percent Bodipy-positive cells [1]: 10.5% and 11.3%
- percent Bodipy-positive cells (library stock concentration: 16.2 mM): 15 ± 1.5%

SMILES: CC(C)(C)CC(C)(C)c1cc(Cc2cc(C(C)(C)CC(C)(C)C)cc(-n3nc4ccccc4n3)c2O)c(O)c(-n2nc3ccccc3n2)c1
- percent Bodipy-positive cells [1]: 36.5 ± 2.9%

SMILES: c1cn2cc(-c3ccc4cn[nH]c4c3)nc(Nc3ccc(N4CCOCC4)cc3)c2n1 [Entospletinib]
- percent Bodipy-positive cells [3]: 91.6 ± 5.5%
- percent Bodipy-positive cells [1]: 92.7 ± 1.9%

SMILES: CC(C)CCCCCCC/C=C\C(=O)O [cis-.DELTA.2-11-methyl-Dodecenoic Acid]
- percent Bodipy-positive cells [4]: 20 ± 6.8%

SMILES: Cc1cc2ncc(-c3ccccc3)nc2cc1C
- percent Bodipy-positive cells [2]: 10.2 ± 0.37%

SMILES: Cn1cnc2c(F)c(Nc3ccc(Br)cc3F)c(C(=O)NOCCO)cc21
- percent Bodipy-positive cells [2]: 6.97 ± 1.3%
- percent Bodipy-positive cells [1]: 30.6 ± 8.1%

SMILES: C#Cc1cccc(Nc2ncnc3cc(OCCOC)c(OCCO)cc23)c1
- percent Bodipy-positive cells [2]: 6.84 ± 1.5%
- percent Bodipy-positive cells [1]: 12.5 ± 0.9%

SMILES: COc1cc(OC2CCN(C)CC2)ccc1Nc1ncc2c(n1)n(C1CCCC1)c(=O)n2C
- percent Bodipy-positive cells [1]: 91.2 ± 4.5%

SMILES: O=Nc1ccc2oc(=O)ccc2c1 [6-Nitroso-1,2-benzopyrone]
- percent Bodipy-positive cells [1]: 94.5 ± 6.4%

SMILES: CN(C(Cc1ccc(OS(=O)(=O)c2cccc3cnccc23)cc1)C(=O)N1CCN(c2ccccc2)CC1)S(=O)(=O)c1cccc2cnccc12 (configuration not stated)
- percent Bodipy-positive cells [2]: 24.4 ± 6.1%
- percent Bodipy-positive cells [1]: 50.2 ± 8%

SMILES: CCN(CC)CCOc1ccc(C(=C(Cl)c2ccccc2)c2ccccc2)cc1.O=C(O)CC(O)(CC(=O)O)C(=O)O [Clomid]
- percent Bodipy-positive cells [1]: 98.17 ± 0.58%

SMILES: Cc1[nH]c(=O)c(C#N)cc1-c1ccc2nccn2c1 [Olprinone hydrochloride]
- percent Bodipy-positive cells [1]: 15.2 ± 5.7%

SMILES: NCCCCCc1c[nH]cn1 [Impentamine dihydrobromide]
- percent Bodipy-positive cells [1]: 7.96 ± 0.42%

SMILES: NC(=O)c1cccc(-c2cccc(OC(=O)NC3CCCCC3)c2)c1
- percent Bodipy-positive cells [4]: 13.1 ± 3%
- percent Bodipy-positive cells [2]: 9.46 ± 1.3%
- percent Bodipy-positive cells [1]: 15.7 ± 0.8%

SMILES: CC(=O)O[C@H]1C(=O)[C@@]2(C)[C@H]([C@H](OC(=O)c3ccccc3)[C@]3(O)C[C@H](OC(=O)[C@H](O)[C@@H](NC(=O)c4ccccc4)c4ccccc4)C(C)=C1C3(C)C)[C@]1(OC(C)=O)CO[C@@H]1C[C@@H]2O [Taxol]
- percent Bodipy-positive cells [5]: 10.7 ± 0.88%
- percent Bodipy-positive cells [1]: 10.2 ± 5.4%

SMILES: CC(=O)O[C@H]1C(=O)[C@@]2(C)[C@H]([C@H](OC(=O)c3ccccc3)[C@]3(O)C[C@H](OC(=O)[C@H](O)[C@@H](NC(=O)c4ccccc4)c4ccccc4)C(C)=C1C3(C)C)[C@]1(OC(C)=O)CO[C@@H]1C[C@@H]2O [Paclitaxel]
- percent Bodipy-positive cells: 27.3 ± 4.7%
- percent Bodipy-positive cells [5]: 17.1 ± 4.5%
- percent Bodipy-positive cells [2]: 18.5 ± 6.8%

SMILES: CC(=O)O[C@H]1C(=O)[C@@]2(C)[C@H]([C@H](OC(=O)c3ccccc3)[C@]3(O)C[C@H](OC(=O)[C@H](O)[C@@H](NC(=O)c4ccccc4)c4ccccc4)C(C)=C1C3(C)C)[C@]1(OC(C)=O)CO[C@@H]1C[C@@H]2O [Taxol = Paclitaxel]
- percent Bodipy-positive cells (library stock concentration: 5.8 mM): 9.67 ± 3.2%

SMILES: C[C@H](CCCO)[C@H]1CC[C@H]2[C@@H]3[C@H](O)C[C@H]4C[C@H](O)CC[C@]4(C)[C@H]3C[C@H](O)[C@]12C [Petromyzonol]
- percent Bodipy-positive cells [4]: 11.8 ± 0.27%

SMILES: CN1CCCC1CCOC(C)(c1ccccc1)c1ccc(Cl)cc1.O=C(O)/C=C/C(=O)O (configuration not stated) [Clemastine fumarate]
- percent Bodipy-positive cells [1]: 93.9 ± 3.6%

SMILES: COc1cccc2c1C(=O)c1c(O)c3c(c(O)c1C2=O)C[C@@](O)(C(=O)CO)C[C@@H]3O[C@H]1C[C@H](N)[C@@H](O)[C@H](C)O1 [Epirubicin HCl]
- percent Bodipy-positive cells [2]: 90 ± 14%
- percent Bodipy-positive cells [1]: 50 ± 71%

SMILES: COc1cccc2c1C(=O)c1c(O)c3c(c(O)c1C2=O)C[C@@](O)(C(=O)CO)C[C@@H]3O[C@H]1C[C@H](N)[C@@H](O)[C@H](C)O1
- percent Bodipy-positive cells [1]: 100%

SMILES: O=C(O)CCCCCCC1C(=O)N(Cc2ccccc2)C(=O)N1NCC(O)C1CCCCC1 (configuration not stated)
- percent Bodipy-positive cells [4]: 12.2 ± 6.1%

SMILES: CCCN(CCC)CCc1cccc2c1CC(=O)N2 [Ropinirole]
- percent Bodipy-positive cells (library stock concentration: 7.7 mM): 11.3 ± 5.5%

SMILES: CCCN(CCC)CCc1cccc2c1CC(=O)N2 [Ropinirole hydrochloride]
- percent Bodipy-positive cells [1]: 17 ± 5.9%
